Laboratory results taken from paper PMC12533952.
Results are given in words; binding and its absence hold for the method and conditions named. In cells and extracts the contact can be indirect. These calls come from enrichment with a bait or labelling near it, and not all partners need be listed. Tags and fused reporters may be left off the sequences shown.

By UniProt entry, the sequences of proteins in these tests, tags left out.
UniProt O00505: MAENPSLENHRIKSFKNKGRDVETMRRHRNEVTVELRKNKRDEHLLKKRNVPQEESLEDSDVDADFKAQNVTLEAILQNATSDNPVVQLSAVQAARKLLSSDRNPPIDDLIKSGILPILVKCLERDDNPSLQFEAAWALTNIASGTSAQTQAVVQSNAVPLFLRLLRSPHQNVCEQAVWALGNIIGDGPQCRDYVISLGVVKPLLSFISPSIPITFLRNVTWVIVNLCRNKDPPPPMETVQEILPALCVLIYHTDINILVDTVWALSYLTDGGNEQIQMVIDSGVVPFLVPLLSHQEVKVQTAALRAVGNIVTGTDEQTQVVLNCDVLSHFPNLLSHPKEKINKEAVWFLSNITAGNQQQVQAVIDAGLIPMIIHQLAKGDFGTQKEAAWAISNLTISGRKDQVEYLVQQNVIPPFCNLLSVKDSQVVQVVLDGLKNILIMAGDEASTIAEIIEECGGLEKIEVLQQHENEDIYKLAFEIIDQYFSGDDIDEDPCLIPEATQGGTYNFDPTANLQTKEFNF
UniProt O00629: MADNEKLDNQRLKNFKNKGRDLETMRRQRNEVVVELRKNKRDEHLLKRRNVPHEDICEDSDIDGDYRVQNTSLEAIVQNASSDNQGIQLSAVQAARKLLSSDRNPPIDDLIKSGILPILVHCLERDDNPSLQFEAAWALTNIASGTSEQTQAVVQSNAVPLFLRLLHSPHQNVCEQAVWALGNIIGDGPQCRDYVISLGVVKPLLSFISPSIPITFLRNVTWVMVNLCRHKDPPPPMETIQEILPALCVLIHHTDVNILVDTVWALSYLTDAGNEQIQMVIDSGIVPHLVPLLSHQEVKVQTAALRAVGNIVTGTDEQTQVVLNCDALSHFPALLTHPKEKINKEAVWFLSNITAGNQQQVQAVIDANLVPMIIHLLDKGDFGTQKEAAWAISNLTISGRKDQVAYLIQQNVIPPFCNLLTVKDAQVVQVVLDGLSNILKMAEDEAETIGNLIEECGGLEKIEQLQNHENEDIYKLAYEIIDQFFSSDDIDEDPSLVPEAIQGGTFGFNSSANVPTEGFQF
UniProt P52294: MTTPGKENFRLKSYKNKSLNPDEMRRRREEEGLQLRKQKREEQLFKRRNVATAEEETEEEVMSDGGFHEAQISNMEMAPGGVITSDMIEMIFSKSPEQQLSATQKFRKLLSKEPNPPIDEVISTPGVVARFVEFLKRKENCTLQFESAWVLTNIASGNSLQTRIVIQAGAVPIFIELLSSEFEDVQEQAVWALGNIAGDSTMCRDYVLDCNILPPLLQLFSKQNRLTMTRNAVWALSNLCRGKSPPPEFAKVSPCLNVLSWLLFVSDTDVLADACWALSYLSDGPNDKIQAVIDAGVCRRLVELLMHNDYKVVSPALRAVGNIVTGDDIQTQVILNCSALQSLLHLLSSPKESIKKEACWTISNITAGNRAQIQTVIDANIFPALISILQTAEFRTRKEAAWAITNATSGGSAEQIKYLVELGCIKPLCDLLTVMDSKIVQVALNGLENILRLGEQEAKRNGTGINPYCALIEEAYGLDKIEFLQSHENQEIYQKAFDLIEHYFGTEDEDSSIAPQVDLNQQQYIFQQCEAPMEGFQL
UniProt P42224: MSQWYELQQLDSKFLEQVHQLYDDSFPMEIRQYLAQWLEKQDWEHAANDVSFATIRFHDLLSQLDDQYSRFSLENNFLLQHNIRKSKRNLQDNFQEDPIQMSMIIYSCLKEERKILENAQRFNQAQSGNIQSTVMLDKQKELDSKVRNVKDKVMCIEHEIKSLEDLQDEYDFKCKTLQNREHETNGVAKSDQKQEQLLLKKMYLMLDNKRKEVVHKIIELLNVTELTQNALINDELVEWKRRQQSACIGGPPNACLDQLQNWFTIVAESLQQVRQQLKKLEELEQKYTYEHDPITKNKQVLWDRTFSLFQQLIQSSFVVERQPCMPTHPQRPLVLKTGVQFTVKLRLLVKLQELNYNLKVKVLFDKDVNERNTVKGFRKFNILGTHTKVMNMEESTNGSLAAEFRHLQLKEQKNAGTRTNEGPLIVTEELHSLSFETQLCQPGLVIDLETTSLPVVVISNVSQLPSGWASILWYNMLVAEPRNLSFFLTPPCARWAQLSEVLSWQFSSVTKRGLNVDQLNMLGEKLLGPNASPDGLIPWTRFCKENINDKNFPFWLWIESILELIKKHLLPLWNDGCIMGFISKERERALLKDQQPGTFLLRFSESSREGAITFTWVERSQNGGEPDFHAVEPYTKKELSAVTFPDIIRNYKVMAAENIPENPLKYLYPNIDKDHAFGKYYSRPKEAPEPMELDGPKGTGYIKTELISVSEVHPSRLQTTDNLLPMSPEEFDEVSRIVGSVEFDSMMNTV

biological target: T1, HBoV1 non-structural protein NP1, Flag-tagged (human bocavirus 1 (HBoV1)) (UniProt Q3YPH5); test: affinity purification with mass spectrometry; HEK293T cells transfected with Flag-tagged viral protein, IFNβ (400 U/mL) 12 h at 24 hpt; lysates with anti-Flag magnetic beads overnight; eluate identified by mass spectrometry
T1 sequence: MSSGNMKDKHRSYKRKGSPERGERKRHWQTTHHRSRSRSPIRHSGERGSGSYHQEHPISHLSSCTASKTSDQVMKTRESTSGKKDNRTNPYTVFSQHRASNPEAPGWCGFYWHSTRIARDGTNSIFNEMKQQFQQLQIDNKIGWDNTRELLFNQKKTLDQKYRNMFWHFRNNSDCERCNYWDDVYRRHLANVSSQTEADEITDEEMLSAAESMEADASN

Substance	binding
KPNA3 (importin-α4) of HEK293T cells (from UniProt O00505 1-521)	binds
KPNA4 (importin-α3) of HEK293T cells (from UniProt O00629 1-521)	binds
KPNA6 (importin-α7) of HEK293T cells (from UniProt O60684 1-536)	binds
Karyopherin subunit alpha-1 (of HEK293T cells) (from UniProt P52294 1-538)	binds
Signal transducer and activator of transcription 1 (of HEK293T cells) (from UniProt P42224 1-750)	binds
